# Earlier results, collected in EP0568635B1, “IMPROVED GLYPHOSATE FORMULATIONS” (MONSANTO COMPANY, priority 1991, dated 1992).
# Settings: at 25°C; cited from earlier work
smiles,measurement,value
"O=C(O)CNCP(=O)(O)O [glyphosate, N-phosphonomethylglycine]",soluble in water,about 1.0 wt. %
